No constants are given. Whether binding was seen depends on the method and setting. For some of these results: Binding seen in cells or lysates may run through a third protein. Some binding calls cover weakened binding; strength is not graded here. For some of these results: Tags and fused reporters may be left off the sequences shown.
T1: Flag-ALDOB (UniProt P05062)
T1 sequence: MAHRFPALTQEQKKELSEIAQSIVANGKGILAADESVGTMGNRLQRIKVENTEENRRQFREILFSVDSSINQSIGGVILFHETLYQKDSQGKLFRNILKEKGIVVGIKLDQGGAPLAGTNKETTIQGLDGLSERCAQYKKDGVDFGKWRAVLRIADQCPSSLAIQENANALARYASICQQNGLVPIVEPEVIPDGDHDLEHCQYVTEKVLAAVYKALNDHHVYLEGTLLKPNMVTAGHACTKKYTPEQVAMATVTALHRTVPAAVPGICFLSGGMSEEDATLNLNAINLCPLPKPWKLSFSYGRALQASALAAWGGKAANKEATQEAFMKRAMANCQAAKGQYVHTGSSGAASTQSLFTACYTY

Chains of the proteins cited; added tags and fusions are not shown. Lines headed by an entry give the natural chain unless they say otherwise; changes in a name come on top.
UniProt P31749, whole entry: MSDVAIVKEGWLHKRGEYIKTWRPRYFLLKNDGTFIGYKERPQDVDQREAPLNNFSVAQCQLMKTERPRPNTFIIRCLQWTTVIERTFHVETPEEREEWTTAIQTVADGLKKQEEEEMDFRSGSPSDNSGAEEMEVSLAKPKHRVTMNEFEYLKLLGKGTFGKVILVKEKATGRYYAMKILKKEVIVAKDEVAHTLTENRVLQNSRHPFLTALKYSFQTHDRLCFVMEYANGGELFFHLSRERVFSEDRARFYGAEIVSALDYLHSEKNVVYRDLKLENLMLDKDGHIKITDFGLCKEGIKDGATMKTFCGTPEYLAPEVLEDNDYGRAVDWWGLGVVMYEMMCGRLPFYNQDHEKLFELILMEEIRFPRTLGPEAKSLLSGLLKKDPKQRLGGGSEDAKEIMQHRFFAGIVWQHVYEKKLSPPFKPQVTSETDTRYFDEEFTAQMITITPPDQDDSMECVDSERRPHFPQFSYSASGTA
UniProt P31751, whole entry: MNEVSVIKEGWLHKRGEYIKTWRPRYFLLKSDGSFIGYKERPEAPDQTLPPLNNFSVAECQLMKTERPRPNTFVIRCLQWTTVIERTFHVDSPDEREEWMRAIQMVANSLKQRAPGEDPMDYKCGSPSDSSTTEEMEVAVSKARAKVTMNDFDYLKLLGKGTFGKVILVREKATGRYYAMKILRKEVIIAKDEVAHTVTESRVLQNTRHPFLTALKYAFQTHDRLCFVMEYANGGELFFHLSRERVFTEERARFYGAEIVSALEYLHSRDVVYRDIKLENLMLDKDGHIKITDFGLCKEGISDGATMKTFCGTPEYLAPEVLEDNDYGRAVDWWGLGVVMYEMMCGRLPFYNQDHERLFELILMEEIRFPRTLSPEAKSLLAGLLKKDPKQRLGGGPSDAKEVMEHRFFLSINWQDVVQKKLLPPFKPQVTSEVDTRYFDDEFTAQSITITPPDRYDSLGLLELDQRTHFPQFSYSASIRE

T2: V5-FBP1^E98A (human) (UniProt P09467)
T2 sequence: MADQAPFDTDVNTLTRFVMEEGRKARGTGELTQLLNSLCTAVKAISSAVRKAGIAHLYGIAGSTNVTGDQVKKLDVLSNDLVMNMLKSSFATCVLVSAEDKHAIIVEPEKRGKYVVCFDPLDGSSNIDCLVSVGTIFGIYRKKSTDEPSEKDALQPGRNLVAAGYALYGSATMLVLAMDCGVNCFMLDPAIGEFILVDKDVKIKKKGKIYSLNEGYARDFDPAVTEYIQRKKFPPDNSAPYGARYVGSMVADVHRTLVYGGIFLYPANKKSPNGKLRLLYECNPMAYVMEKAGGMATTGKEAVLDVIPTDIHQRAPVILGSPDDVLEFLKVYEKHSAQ

T3: V5-FBP1 (human) (UniProt P09467)
T3 sequence: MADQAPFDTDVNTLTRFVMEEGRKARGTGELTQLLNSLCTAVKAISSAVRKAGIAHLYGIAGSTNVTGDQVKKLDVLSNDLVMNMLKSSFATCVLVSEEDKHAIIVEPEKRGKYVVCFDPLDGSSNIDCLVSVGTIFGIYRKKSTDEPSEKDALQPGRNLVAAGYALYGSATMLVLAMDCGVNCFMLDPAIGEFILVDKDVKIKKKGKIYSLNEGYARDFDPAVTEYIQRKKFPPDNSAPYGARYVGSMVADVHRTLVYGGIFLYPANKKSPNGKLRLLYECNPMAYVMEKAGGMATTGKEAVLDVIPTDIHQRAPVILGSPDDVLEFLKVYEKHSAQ

T4: FBP1 (mouse liver) (mouse (endogenous in liver)) (UniProt Q9QXD6)
T4 sequence: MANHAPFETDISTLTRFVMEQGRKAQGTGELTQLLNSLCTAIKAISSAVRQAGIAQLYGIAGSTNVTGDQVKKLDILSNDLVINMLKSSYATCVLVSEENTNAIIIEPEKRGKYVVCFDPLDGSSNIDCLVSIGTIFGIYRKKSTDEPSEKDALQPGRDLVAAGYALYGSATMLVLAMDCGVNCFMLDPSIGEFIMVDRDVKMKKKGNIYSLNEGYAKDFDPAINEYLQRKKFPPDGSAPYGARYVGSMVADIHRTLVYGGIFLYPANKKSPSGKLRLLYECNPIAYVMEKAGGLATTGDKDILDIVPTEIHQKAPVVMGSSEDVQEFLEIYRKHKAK

T5: V5-FBP1^L329P (human) (UniProt P09467)
T5 sequence: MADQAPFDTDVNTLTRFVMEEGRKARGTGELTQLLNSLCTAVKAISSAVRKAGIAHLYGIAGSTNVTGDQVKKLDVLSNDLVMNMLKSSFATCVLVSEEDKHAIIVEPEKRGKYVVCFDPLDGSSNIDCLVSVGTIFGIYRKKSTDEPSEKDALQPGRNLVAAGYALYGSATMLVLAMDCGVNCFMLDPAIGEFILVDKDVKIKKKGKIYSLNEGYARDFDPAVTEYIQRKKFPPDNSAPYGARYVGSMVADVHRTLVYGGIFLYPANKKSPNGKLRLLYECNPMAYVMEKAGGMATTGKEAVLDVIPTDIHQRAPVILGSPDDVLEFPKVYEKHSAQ

T6: His-FBP1 (UniProt P09467)
T6 sequence: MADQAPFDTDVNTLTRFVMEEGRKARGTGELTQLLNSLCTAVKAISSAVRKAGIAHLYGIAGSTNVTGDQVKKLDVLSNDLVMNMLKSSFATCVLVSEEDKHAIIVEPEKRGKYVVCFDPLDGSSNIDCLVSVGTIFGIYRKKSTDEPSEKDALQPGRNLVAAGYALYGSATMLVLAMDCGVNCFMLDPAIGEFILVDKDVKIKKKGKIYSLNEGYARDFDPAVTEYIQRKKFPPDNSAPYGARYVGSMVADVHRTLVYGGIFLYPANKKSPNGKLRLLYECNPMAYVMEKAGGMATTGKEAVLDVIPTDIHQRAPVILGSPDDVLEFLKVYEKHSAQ


How the values were obtained:
Flag-ALDOB = molecular target: T1, Flag-ALDOB; assay: co-IP
V5-FBP1^E98A (human) = molecular target: T2, V5-FBP1^E98A (human); assay: co-IP
V5-FBP1 (human) = molecular target: T3, V5-FBP1 (human); assay: co-IP
[1] = molecular target: T4, FBP1 (mouse liver) (mouse (endogenous in liver)); assay: SEC
[2] = molecular target: T4, FBP1 (mouse liver) (mouse (endogenous in liver)); assay: proximity ligation
V5-FBP1^L329P (human) = molecular target: T5, V5-FBP1^L329P (human); assay: co-IP
His-FBP1 = molecular target: T6, His-FBP1; assay: pull-down

binding (V5-FBP1^E98A (human)) | binding (V5-FBP1 (human)) | Molecule | other results
– | – | endogenous AKT1 (from UniProt P31749 1-480) (enzyme) | binding (Flag-ALDOB): binds
binds | binds | AKT2 (from UniProt P31751 1-481) (enzyme) | –
binds | binds | AKT1 (from UniProt P31749 1-480) (enzyme) | –
– | – | ALDOB (mouse liver) (enzyme, UniProt Q91Y97 1-364) MAHRFPALTPEQKKELSEIAQRIVANGKGILAADESVGTMGNRLQRIKVENTEENRRQFRELLFSVDNSISQSIGGVILFHETLYQKDSQGNLFRNVLKEKGIVVGIKLDQGGAPLAGTNKETTIQGLDGLSERCAQYKKDGVDFGKWRAVLRIADQCPSSLAIQENANALARYASICQQNGLVPIVEPEVLPDGDHDLEHCQYVSEKVLAAVYKALNDHHVYLEGTLLKPNMVTAGHACTKKYTPEQVAMATVTALHRTVPAAVPGICFLSGGMSEEDATLNLNAINRCPLPRPWKLSFSYGRALQASALAAWGGKAANKKATQEAFMKRAMANCQAAQGQYVHTGSSGAAATQSLFTASYTY | binding [1]: binds; binding [2]: binds
binds | binds | ALDOB (enzyme, UniProt P05062 1-364) MAHRFPALTQEQKKELSEIAQSIVANGKGILAADESVGTMGNRLQRIKVENTEENRRQFREILFSVDSSINQSIGGVILFHETLYQKDSQGKLFRNILKEKGIVVGIKLDQGGAPLAGTNKETTIQGLDGLSERCAQYKKDGVDFGKWRAVLRIADQCPSSLAIQENANALARYASICQQNGLVPIVEPEVIPDGDHDLEHCQYVTEKVLAAVYKALNDHHVYLEGTLLKPNMVTAGHACTKKYTPEQVAMATVTALHRTVPAAVPGICFLSGGMSEEDATLNLNAINLCPLPKPWKLSFSYGRALQASALAAWGGKAANKEATQEAFMKRAMANCQAAKGQYVHTGSSGAASTQSLFTACYTY | –
binds | binds | ALDOB (Huh7 cells) (enzyme, UniProt P05062 1-364) MAHRFPALTQEQKKELSEIAQSIVANGKGILAADESVGTMGNRLQRIKVENTEENRRQFREILFSVDSSINQSIGGVILFHETLYQKDSQGKLFRNILKEKGIVVGIKLDQGGAPLAGTNKETTIQGLDGLSERCAQYKKDGVDFGKWRAVLRIADQCPSSLAIQENANALARYASICQQNGLVPIVEPEVIPDGDHDLEHCQYVTEKVLAAVYKALNDHHVYLEGTLLKPNMVTAGHACTKKYTPEQVAMATVTALHRTVPAAVPGICFLSGGMSEEDATLNLNAINLCPLPKPWKLSFSYGRALQASALAAWGGKAANKEATQEAFMKRAMANCQAAKGQYVHTGSSGAASTQSLFTACYTY | binding (V5-FBP1^L329P (human)): no binding
– | – | His-ALDOB (enzyme, UniProt P05062 1-364) MAHRFPALTQEQKKELSEIAQSIVANGKGILAADESVGTMGNRLQRIKVENTEENRRQFREILFSVDSSINQSIGGVILFHETLYQKDSQGKLFRNILKEKGIVVGIKLDQGGAPLAGTNKETTIQGLDGLSERCAQYKKDGVDFGKWRAVLRIADQCPSSLAIQENANALARYASICQQNGLVPIVEPEVIPDGDHDLEHCQYVTEKVLAAVYKALNDHHVYLEGTLLKPNMVTAGHACTKKYTPEQVAMATVTALHRTVPAAVPGICFLSGGMSEEDATLNLNAINLCPLPKPWKLSFSYGRALQASALAAWGGKAANKEATQEAFMKRAMANCQAAKGQYVHTGSSGAASTQSLFTACYTY | binding (His-FBP1): binds
